Assay results reported in PMC8604998.
No constants are given. Whether binding was seen depends on the method and setting. Binding seen in cells or lysates may run through a third protein. Some entries that bind do so weakly or less than the wild type.

Chains of the proteins cited; added tags and fusions are not shown.
UniProt Q9UJY4: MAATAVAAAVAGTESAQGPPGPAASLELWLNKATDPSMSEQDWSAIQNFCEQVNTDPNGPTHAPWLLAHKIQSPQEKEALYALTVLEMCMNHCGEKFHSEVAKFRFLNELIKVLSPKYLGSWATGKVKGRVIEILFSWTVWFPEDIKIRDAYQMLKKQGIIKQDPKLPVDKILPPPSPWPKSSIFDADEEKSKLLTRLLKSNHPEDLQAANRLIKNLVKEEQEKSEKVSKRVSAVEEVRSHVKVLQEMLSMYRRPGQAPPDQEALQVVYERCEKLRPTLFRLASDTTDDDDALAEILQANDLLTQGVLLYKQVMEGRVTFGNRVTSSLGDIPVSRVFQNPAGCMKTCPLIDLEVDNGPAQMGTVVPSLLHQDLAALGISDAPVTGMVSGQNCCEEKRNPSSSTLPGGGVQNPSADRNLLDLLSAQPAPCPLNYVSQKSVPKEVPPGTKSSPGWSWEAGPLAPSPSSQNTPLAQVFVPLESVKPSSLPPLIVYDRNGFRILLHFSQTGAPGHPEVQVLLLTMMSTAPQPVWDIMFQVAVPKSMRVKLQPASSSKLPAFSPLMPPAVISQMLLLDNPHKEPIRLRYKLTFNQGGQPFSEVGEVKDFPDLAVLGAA

How the values were obtained:
[1] = target: epidermal growth factor receptor (EGFR) L858R/T790M, endogenous in H1975 cells (human (endogenous in H1975)) (UniProt P00533); experiment: co-IP; ARPE-19 and H1975 lysates (PBS, 1% Triton X-100); sepharose beads conjugated with anti-EGFR or control IgG, 20-24 h at 4 °C, six washes; western blotting of bound proteins
[2] = target: epidermal growth factor receptor (EGFR), endogenous in ARPE-19 cells (human (endogenous in ARPE-19)) (UniProt P00533); experiment: as above
[3] = target: epidermal growth factor receptor (EGFR), endogenous in ARPE-19 cells (human (endogenous in ARPE-19)) (UniProt P00533); experiment: proximity ligation; PLA in fixed ARPE-19 and H1975 cells with pairs of antibodies (anti-γ1-adaptin or anti-GGA2 with anti-EGFR; AP-1 with CIMPR, β-COP or Sec24B); also after EGF treatment and in cells transfected with GFP-Rab11a or GFP-Rab5a

Measured: binding

Golgi-localized, γ-adaptin ear-containing, ADP ribosylation factor-binding protein 2 (GGA2) (from UniProt Q9UJY4 1-613)
binds: all assays above
